The values that follow come from PMC12040169 (PLOS Biology, 2025).

Each structure is given as a SMILES string. Some of the results follow.

In this assay the test system is T1, CTL2-GFP (C. trachomatis L2/434/Bu, GFP-expressing).
T1 construct: L2/434/Bu, GFP-expressing
Further details: species or system HeLa; Intracellular C. trachomatis growth in HeLa cells, bulk GFP fluorescence relative to DMSO. The note with it: bulk GFP, single well; 28.5 h, 10 µM; inhibitor.
As to `O=c1cc(N2CCN(CC3(O)CCNC3)CC2)c(-c2ccccc2)n[nH]1` (stereo not shown) [CBK307088], the “% of control remaining” value stood at 152.51%.
Regarding `c1ccc(Sc2nccnc2N2CCCC2)nc1` [CBK093734], the “% of control remaining” value is recorded as 100%.
As for `CNS(=O)(=O)c1cc(C(=O)O)c(OC)cc1OC` [CBK110325], the figure is 124.905%; as for `CCOC(=O)c1cnn(C2CCCN(Cc3cc(C#N)cs3)C2)c1` (stereo not shown) [CBK305399], 135.388%.
The result for `CC(C(=O)O)N1C(=O)c2ccccc2C1c1c[nH]c2ccccc12` (stereo not shown) [CBK286576] reads 108.599%; that for `Cc1nc(C2CCCC2)cc([C@H]2CN3CC[C@H]2C[C@@H]3CNS(C)(=O)=O)n1` [CBK289121], 128.431%.
The result for `CC1CCC/C(=N\NC(=O)C2C3CCCCC32)C1` (stereo not shown) [CBK025750] reads 102.389%; that for `Cc1ccccc1NS(=O)(=O)c1cc(C(=O)Nc2ccc(S(=O)(=O)N3CCCC3)cc2)ccc1C` [CBK269004], 117.896%.
Consider `O=C(O)c1ccccc1SC1CCc2ccccc2NC1=O` (stereo not shown) [CBK286683], for which the “% of control remaining” value stood at 164.217%.
Regarding `O=C(N[C@H]1CO[C@H]2[C@@H]1OC[C@@H]2Nc1nccc(-c2cccs2)n1)C1CC1` [CBK289517], the “% of control remaining” value is recorded as 116.712%.
As for `Cc1ccccc1C(=O)N/N=C/c1ccc(Sc2nnnn2-c2ccccc2)o1` [CBK263259], the “% of control remaining” value came out at 116.464%.
As for `Fc1ccc(OCc2nnn[nH]2)c(F)c1` [CBK269473], the figure is 128.296%.
Regarding `O=C(O)c1ccc(C(=O)O)c(-c2ccccc2)c1` [CBK261102], the “% of control remaining” value worked out at 108.329%.
Turning to `Cc1nn(C)cc1-c1cncn1CCCOc1ccc(Cl)cc1` [CBK281787], the “% of control remaining” value stood at 109.349%.
For `CCCC(=O)Nc1ccc(C(=O)Nc2ccccc2C(=O)O)cc1` [CBK265111], the “% of control remaining” value amounted to 167.372%.
As to `NC(=O)N1CCC(C(=O)N2CC3(CCCC3)c3c(F)cccc32)CC1` [CBK304973], the “% of control remaining” value was 84.3193%.
The result for `Cc1ccc(C#N)c(S(=O)(=O)Nc2cc(N3C[C@@H](C)N[C@@H](C)C3)c3occc3c2)c1` [CBK034756C] reads 88.2886%.
The result for `COc1ccc(N2CCN(c3cncc(-c4cc(OC)c(OC)c(OC)c4)n3)CC2)cc1OC` [CBK037988] reads 144.058%.
As to `CN1CCN(c2ccc(-c3cncc(N4CCN(c5ccncc5)CC4)n3)cn2)CC1` [CBK065144], the “% of control remaining” value was found to be 174.547%.
For `O=C(O)c1ccc2c(c1)C(=O)N(c1ccc(-c3ccnc(-c4ccc(N5C(=O)c6ccc(C(=O)O)cc6C5=O)cc4)n3)cc1)C2=O` [CBK261192], the “% of control remaining” value amounted to 108.806%.
Take `CC(=O)Nc1cccc(-c2cnc3[nH]c(=O)n([C@@H](C)c4ccccc4)c3n2)c1` [CBK064159]: the “% of control remaining” value turned out to be 79.0887%.
Take `COc1ccc(-c2cc(C(=O)NCC(=O)O)c(C)o2)cc1OC` [CBK287130]: the “% of control remaining” value was 126.496%.
The result for `c1cc(CNc2nccnc2-c2ccsc2)ccn1` [CBK037513] reads 122.562%.
Take `CC(C)c1ccc(S(=O)(=O)Nc2ccc(O)c(Sc3nc[nH]n3)c2)cc1` [CBK266861]: the “% of control remaining” value turned out to be 154.291%.
Regarding `CCc1nn(CCN2CCCC2)c(=O)c2cc3sc(C)cc3n12` [CBK284098], the “% of control remaining” value is recorded as 158.306%.
As to `Fc1ccccc1-c1nccnc1NCc1cccs1` [CBK038088], the “% of control remaining” value is on record as 235.217%.
Take `CS(=O)(=O)Nc1ccc(CC#N)cc1` [CBK038145]: the “% of control remaining” value came to 121.861%.
Consider `CN(C(=O)C1CC1)C1CCN(c2ncnc3ccccc23)CC1` [CBK304946], for which the “% of control remaining” value amounted to 96.593%.
The result for `O=C(O)c1ccccc1NC(=O)N1CCc2[nH]cnc2C1c1cccc(F)c1` (stereo not shown) [CBK286824] reads 143.193%.
Turning to `c1cc(CCNc2cc(-c3ccc4c(c3)OCO4)ncn2)ccn1` [CBK037689], the “% of control remaining” value is listed as 112.726%.
Turning to `CC(NC(=O)c1ccccc1Br)c1nnc(SCc2ccc([N+](=O)[O-])cc2)n1C` (stereo not shown) [CBK267810], the “% of control remaining” value was 85.9425%.
Turning to `CC1CC(C)CN(C(=O)CN2C(=O)N3CCN=C3c3ccccc32)C1` (stereo not shown) [CBK283960], the “% of control remaining” value was found to be 108.198%.
In the case of `CN1C[C@@H](NC(=O)c2cccnc2)C[C@H]1c1nc(-c2cccnc2)no1` [CBK288857], the “% of control remaining” value is listed as 107.062%.
Regarding `COc1cc(Nc2cccc(-c3cccc(NC(C)=O)c3)n2)cc(OC)c1OC` [CBK037698], the “% of control remaining” value worked out at 92.8172%.
For the compound `COc1ccc(OC(C)C(=O)Nc2ccc(C(=O)O)cc2)cc1` (stereo not shown) [CBK263622], the “% of control remaining” value was found to be 97.6799%.
The result for `CCOc1ccc(CN2CCN(CC(=O)Nc3cc(C)on3)CC2)cc1` [CBK306116] reads 86.3017%.
For the compound `COc1ccc(N2C(=O)CC(N3CCN(c4ccc(S(=O)(=O)N5CCCC5)cc4)CC3)C2=O)cc1` (stereo not shown) [CBK268851], the “% of control remaining” value came to 125.946%.
The result for `CC#CC(=O)N1CCCC(Cc2ccc(F)cc2F)(C(=O)OCC)C1` (stereo not shown) [CBK307051] reads 103.959%; that for `COCC1CCN(C(=O)Nc2ccc(F)c(N3CCCNC3=O)c2)C1` (stereo not shown) [CBK305487], 117.925%.
As for `CSc1ccc(-c2nc(NC(=O)C(C)C)cc3cccnc23)cc1` [CBK081262], the “% of control remaining” value amounted to 96.4476%.
With `Cc1cc(C2CCCCCN2C(=O)c2c(C)noc2C)on1` (stereo not shown) [CBK284844], the “% of control remaining” value amounted to 99.5718%.
For `COc1cccc([C@H]2CN(C(=O)c3ccccc3)[C@@H]3CCN(Cc4cccs4)C[C@H]23)c1` [CBK285609], the “% of control remaining” value is on record as 88.8488%.
As to `Cc1ccc(S(=O)(=O)Nc2ccc(Nc3cc(-c4cccc([N+](=O)[O-])c4)ncn3)cc2)cc1` [CBK090983], the “% of control remaining” value is 150.403%.
As for `OC1(c2ccccc2)CCN(Cc2cncn2Cc2ccccc2)C1` (stereo not shown) [CBK282809], the “% of control remaining” value was 85.1619%.
On to `CC(C)(CO)CNC(=O)c1cnc(-c2ccccc2)c(-c2ccncc2)c1` [CBK036734], for which the “% of control remaining” value stood at 117.047%.
The result for `COc1ccc(C(C)C)cc1-c1cncc(NCCc2c[nH]c3ccccc23)n1` [CBK065174] reads 152.95%; that for `CCOC(=O)C1CCCN(Cc2nnsc2Cl)C1` (stereo not shown) [CBK304848], 102.371%.
Take `CC(C)[C@@H](CO)Nc1nccnc1-c1ccc(CN)cc1` [CBK036640]: the “% of control remaining” value was 221.255%.
In the case of `CNC(=O)C1(Cc2ccc(-c3ccccc3)cc2)CCN(C(=O)c2cccc(OC)c2)CC1` [CBK285788], the “% of control remaining” value worked out at 124.125%.
